{"sequences": {"note": "Chains of the proteins cited; added tags and fusions are not shown. Chains listed by the source or under a name are the forms on record and can include a tag or linker.", "OR1A1, as listed by the source": "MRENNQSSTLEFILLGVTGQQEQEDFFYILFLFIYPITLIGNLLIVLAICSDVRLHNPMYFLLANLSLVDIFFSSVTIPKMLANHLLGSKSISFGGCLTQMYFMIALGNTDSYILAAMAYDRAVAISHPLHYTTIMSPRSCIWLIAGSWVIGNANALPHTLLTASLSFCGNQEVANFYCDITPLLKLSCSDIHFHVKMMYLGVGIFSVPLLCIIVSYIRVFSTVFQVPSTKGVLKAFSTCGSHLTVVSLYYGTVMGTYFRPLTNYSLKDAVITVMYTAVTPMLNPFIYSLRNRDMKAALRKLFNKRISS"}, "source": "the M2OR odorant receptor database", "settings_in_all_cases": "stereoisomer not certain", "key": {"OR13C3 (Homo sapiens)": {"target": "T1, OR13C3 (Homo sapiens) (UniProt Q8NGS6)", "T1 sequence (whole entry)": "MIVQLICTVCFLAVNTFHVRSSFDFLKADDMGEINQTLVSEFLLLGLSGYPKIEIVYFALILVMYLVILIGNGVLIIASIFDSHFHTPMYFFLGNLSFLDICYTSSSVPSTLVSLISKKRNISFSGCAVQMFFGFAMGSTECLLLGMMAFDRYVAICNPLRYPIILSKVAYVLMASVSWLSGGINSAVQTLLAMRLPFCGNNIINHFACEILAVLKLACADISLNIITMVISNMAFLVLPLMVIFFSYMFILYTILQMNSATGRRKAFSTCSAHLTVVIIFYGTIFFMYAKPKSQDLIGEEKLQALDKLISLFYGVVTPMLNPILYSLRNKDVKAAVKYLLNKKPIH", "in_short": "(§1)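 Transient luciferase assays in mammalian cell lines were common, though methods varied by source. The values come from published papers and their supplementary material, with extra details from the original authors when needed. Responsive refers to a measured signal the original authors judged statistically different from baseline, and non-responsive (inactive) to the remainder.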"}, "OR13C4 (Homo sapiens)": {"target": "T2, OR13C4 (Homo sapiens) (UniProt Q8NGS5)", "T2 sequence (whole entry)": "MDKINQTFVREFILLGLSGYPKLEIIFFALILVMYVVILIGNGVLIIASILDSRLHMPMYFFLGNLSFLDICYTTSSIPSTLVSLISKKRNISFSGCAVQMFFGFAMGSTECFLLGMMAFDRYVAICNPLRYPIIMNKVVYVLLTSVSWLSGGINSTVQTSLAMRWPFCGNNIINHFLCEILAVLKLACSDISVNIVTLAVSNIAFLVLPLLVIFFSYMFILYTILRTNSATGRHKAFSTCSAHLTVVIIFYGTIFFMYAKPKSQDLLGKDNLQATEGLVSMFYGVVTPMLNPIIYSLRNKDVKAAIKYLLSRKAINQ", "in_short": "as §1"}, "OR13C8 (Homo sapiens)": {"target": "T3, OR13C8 (Homo sapiens) (UniProt Q8NGS7)", "T3 sequence (whole entry)": "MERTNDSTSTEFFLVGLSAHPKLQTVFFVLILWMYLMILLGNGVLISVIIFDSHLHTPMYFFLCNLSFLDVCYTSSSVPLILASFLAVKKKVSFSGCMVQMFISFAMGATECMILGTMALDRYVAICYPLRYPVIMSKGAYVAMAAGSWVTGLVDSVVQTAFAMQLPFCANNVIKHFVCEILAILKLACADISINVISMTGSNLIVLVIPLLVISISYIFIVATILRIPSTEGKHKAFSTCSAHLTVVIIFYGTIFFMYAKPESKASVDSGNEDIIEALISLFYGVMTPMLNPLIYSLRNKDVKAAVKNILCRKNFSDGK", "in_short": "as §1"}, "OR13H1 (Homo sapiens)": {"target": "T4, OR13H1 (Homo sapiens) (UniProt Q8NG92)", "T4 sequence (whole entry)": "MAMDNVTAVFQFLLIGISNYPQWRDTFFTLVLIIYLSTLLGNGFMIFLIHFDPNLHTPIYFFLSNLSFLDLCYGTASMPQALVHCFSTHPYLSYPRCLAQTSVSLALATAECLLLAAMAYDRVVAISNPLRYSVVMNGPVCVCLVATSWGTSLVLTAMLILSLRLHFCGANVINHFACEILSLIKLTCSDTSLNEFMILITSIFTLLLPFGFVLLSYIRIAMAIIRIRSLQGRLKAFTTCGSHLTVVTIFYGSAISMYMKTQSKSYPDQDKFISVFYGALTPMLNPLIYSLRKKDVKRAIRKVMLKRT", "in_short": "as §1"}, "OR14J1 (Homo sapiens)": {"target": "T5, OR14J1 (Homo sapiens) (UniProt Q9UGF5)", "T5 sequence (whole entry)": "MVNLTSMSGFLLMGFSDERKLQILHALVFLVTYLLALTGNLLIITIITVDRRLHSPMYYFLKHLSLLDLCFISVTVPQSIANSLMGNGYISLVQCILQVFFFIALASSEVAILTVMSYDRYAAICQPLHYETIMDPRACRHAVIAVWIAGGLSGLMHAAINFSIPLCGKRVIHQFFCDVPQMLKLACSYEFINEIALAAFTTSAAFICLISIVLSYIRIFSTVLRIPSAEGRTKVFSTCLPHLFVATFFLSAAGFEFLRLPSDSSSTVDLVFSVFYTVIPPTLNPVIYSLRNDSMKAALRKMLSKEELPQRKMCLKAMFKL", "in_short": "as §1"}, "OR1A1 (Homo sapiens)": {"target": "T6, OR1A1 (Homo sapiens) (UniProt Q9P1Q5)", "T6 sequence (whole entry)": "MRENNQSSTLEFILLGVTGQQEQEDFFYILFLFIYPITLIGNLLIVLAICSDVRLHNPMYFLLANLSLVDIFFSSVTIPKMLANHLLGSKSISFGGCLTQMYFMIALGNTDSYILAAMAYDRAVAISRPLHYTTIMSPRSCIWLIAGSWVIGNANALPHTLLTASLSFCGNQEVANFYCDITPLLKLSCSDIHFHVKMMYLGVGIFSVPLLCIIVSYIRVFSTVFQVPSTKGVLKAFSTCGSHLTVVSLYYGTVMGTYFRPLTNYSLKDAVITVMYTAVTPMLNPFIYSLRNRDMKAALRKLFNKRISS", "in_short": "as §1"}, "OR1A1 [1]": {"system": "T7, OR1A1", "T7 sequence (whole entry)": "T6 sequence (whole entry) with R128H", "in_short": "as §1"}, "OR1A1 [2]": {"system": "T8, OR1A1", "T8 sequence (whole entry)": "T6 sequence (whole entry) with V233M", "in_short": "as §1", "remark": "listed apart in the source"}, "OR1A1 [3]": {"system": "T9, OR1A1", "T9 sequence (whole entry)": "T6 sequence (whole entry) with P285S", "in_short": "as §1", "remark": "listed apart in the source"}, "OR1A2 (Homo sapiens)": {"target": "T10, OR1A2 (Homo sapiens) (UniProt Q9Y585)", "T10 sequence (whole entry)": "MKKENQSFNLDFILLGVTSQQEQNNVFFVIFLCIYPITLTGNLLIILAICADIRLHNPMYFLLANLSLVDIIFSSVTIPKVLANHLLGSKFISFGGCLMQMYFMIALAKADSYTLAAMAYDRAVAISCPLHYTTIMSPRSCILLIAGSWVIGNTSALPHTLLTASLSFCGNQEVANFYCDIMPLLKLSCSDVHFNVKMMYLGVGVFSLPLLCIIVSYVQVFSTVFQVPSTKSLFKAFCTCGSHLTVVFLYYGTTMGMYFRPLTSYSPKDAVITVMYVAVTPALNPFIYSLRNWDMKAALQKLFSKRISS", "in_short": "as §1"}}, "note": "Numbering of substitutions follows the chain as printed. The list shows a part of the results, in another mix than the full data. Calls are pooled over several reports, among them a noisy single-well screen. The list shows a part of the results. Some of the results follow.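 Note: active if original authors judged signal statistically different from baseline.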", "data": [{"compound": "CS", "values": [{"measurement": "odorant receptor agonist call", "setting": "OR13C3 (Homo sapiens)", "result": "inactive"}, {"measurement": "odorant receptor agonist call", "setting": "OR13C4 (Homo sapiens)", "result": "inactive"}, {"measurement": "odorant receptor agonist call", "setting": "OR13C8 (Homo sapiens)", "result": "inactive"}, {"measurement": "odorant receptor agonist call", "setting": "OR13H1 (Homo sapiens)", "result": "inactive"}, {"measurement": "odorant receptor agonist call", "setting": "OR14J1 (Homo sapiens)", "result": "inactive"}, {"measurement": "odorant receptor agonist call", "setting": "OR1A1 (Homo sapiens)", "result": "inactive"}, {"measurement": "odorant receptor agonist call", "setting": "OR1A1 [1]", "result": "inactive"}, {"measurement": "odorant receptor agonist call", "setting": "OR1A1 [2]", "result": "active"}, {"measurement": "odorant receptor agonist call", "setting": "OR1A1 [3]", "result": "inactive"}, {"measurement": "odorant receptor agonist call", "setting": "OR1A2 (Homo sapiens)", "result": "inactive"}]}]}
